In US10857167B2, “Use of oligosaccharide compositions to enhance weight gain” (Children's Hospital Medical Center, priority 2015, dated 2020):
Where “and” joins values, the source holds several entries; their conditions need not be identical. Equal values may be shown once. This continues a long series; more values of the same kind are listed elsewhere.

System: distal small bowel gene expression
Assay: RNA sequencing / transcriptional analysis of small bowel 56 days after ICR (2′-FL signature response)
Assay type: in vivo, mouse
Text: Luminal small bowel contents were expressed into AllProtect Tissue Reagent (Qiagen Inc, CA). Bacterial DNA was extracted using the AllPrep DNA/RNA Mini Kit (Qiagen Inc, CA), according to kit instructions and prior to sequencing (described below). Small bowel tissue samples for RNA were placed into RNA Later (Life Technologies, NY). RNA extraction was accomplished following Qiagen RNeasy Plus Kit instruction (Qiagen Inc, CA). All nucleic acid samples were then stored at -80 Celsius until sequenced (described below). Transcriptional analysis was carried out on resected and harvested small bowel samples obtained from operated mice taken to 8 weeks. Murine RNA sequencing libraries were prepared from approximately 1.5 μg RNA using the TruSeq RNA Sample Preparation Kit (Illumina, Calif.) and sequenced using the HiSeq 2000 Sequencing System (Illumina, Calif.) with single-end 50 bp reads. Following removal of primers and barcodes, sequences were aligned to the mm10 genome using reference annotations from UCSC (Rosenbloom et al. (2015) Nucleic acids research 43: […]-681) (n=36,186 entities). Aligned reads were quantified and used to compute reads per kilobase per million mapped reads (RPKM); raw counts were then normalized using the DESeq algorithm and each harvested sample was baselined to its own resected sample. A filter was applied to the data, requiring at least three reads in all samples of at least one of the four experimental conditions (n=14,489 entities). The data discussed in this publication have been deposited in NCBI's Gene Expression Omnibus and are accessible through NCBI Gene Expression Omnibus (GEO) Series accession number GSE72590. Edgar et al. (2002) Nucleic acids research 30: 207-210. In order to characterize the impact of 2'-FL supplementation while accounting for the effect of ileoecal resection, a t-test was applied between resected and harvested samples within control and experimental animals. Significance was set at a p-value of ≤0.05 and a fold change of 3, which generated 2,576 differentially regulated entities across two comparisons. Gene set unions and intersections of the control and experimental gene sets were identified through Venn diagrams. From the master list, the gene list specific to animals supplemented with 2'-FL were removed in order to identify genes differentially regulated only by ICR (n=546 entities); this gene set characterizes the adaptive response. Further, the 2'-FL response (n=2,030 entities) was identified by removing the adaptive response signature described above from the master list, leaving only genes regulated by 2'-FL supplementation after ICR which were not found in the non-supplemented adaptive response. Heatmaps were generated using hierarchical clustering with the Pearson's Centered distance metric and the average linkage rule; both entities and samples were clustered. All genomic analyses described above were performed in Strand NGS (Strand Life Sciences, CA). Gene list functional enrichment was initially discovered using ToppFun, a member of the ToppGene Suite. Chen et al. (2009) Nucleic acids research 37: […]-311. No statistical correction was selected. Gene lists were further analyzed using ClueGO, a plugin for Cytoscape designed to decipher functionally grouped gene ontology and pathway annotation networks. Bindea et al. (2009) Bioinformatics 25: 1091-1093. At the time of data analysis, the annotation files were updated from sources to Jan. 1, 2015. “GO Term Fusion” was enabled to manage ontologic term redundancy and network specificity was set to medium. Results were restricted to pathways with p≤0.05 using Benjamini-Hochberg correction and Kappa scoring was set to 0.4. Biocyc annotations were assigned a rectangle, gene ontology biologic processes were assigned an ellipse, and […] annotations were assigned a diamond shape. No meaning was assigned to size or color. […]

C[C@@H]1O[C@@H](O[C@H]2[C@H](O[C@H]3[C@H](O)[C@@H](O)C(O)O[C@@H]3CO)O[C@H](CO)[C@H](O)[C@@H]2O)[C@@H](O)[C@H](O)[C@@H]1O (stereo partly drawn) [2′-FL, 2′-fucosyllactose]
Fold Change (Pre- to Post-op) (Fam96a): 5.558 | Fold Change (Pre- to Post-op) (Fam96b): 3.112 | Fold Change (Pre- to Post-op) (Fam132a): 3.194 | Fold Change (Pre- to Post-op) (Fam136a): 4.738 | Fold Change (Pre- to Post-op) (Fam162a): 5.356 | Fold Change (Pre- to Post-op) (Fam221b): 4.095 | Fold Change (Pre- to Post-op) (Fau): 3.379 | Fold Change (Pre- to Post-op) (Fbxl5): 3.517 | Fold Change (Pre- to Post-op) (Fbxw9): 3.597 | Fold Change (Pre- to Post-op) (Fdps): 3.298 | Fold Change (Pre- to Post-op) (Fdx1): 3.253 | Fold Change (Pre- to Post-op) (Fdxacb1): 3.072 | Fold Change (Pre- to Post-op) (Fis1): 3.366 | Fold Change (Pre- to Post-op) (Fmr1nb): 12.73 | Fold Change (Pre- to Post-op) (Fopnl): 3.476 | Fold Change (Pre- to Post-op) (Frmd8os): 3.538 | Fold Change (Pre- to Post-op) (Fscn3): 6.024 | Fold Change (Pre- to Post-op) (Gabarapl2): 3.719 | Fold Change (Pre- to Post-op) (Gchfr): 6.958 | Fold Change (Pre- to Post-op) (Ghrl): 3.872 | Fold Change (Pre- to Post-op) (Gin1): 3.504 | Fold Change (Pre- to Post-op) (Glod5): 3.452 | Fold Change (Pre- to Post-op) (Glrx3): 3.293 | Fold Change (Pre- to Post-op) (Gm2382): 3.248 | Fold Change (Pre- to Post-op) (Gm3258): 3.529 | Fold Change (Pre- to Post-op) (Gm4013): 4.014 | Fold Change (Pre- to Post-op) (Gm4787): 3.987 | Fold Change (Pre- to Post-op) (Gm5617): 3.339 | Fold Change (Pre- to Post-op) (Gm6297): 4.827 | Fold Change (Pre- to Post-op) (Gm6484): 3.962 | Fold Change (Pre- to Post-op) (Gm9780): 3.371 | Fold Change (Pre- to Post-op) (Gm9895): 3.057 | Fold Change (Pre- to Post-op) (Gm9926): 5.483 | Fold Change (Pre- to Post-op) (Gm10012): 3.729 | Fold Change (Pre- to Post-op) (Gm10069): 3.514 | Fold Change (Pre- to Post-op) (Gm10872): 4.049 | Fold Change (Pre- to Post-op) (Gm11627): 3.534 | Fold Change (Pre- to Post-op) (Gm12408): 8.868 | Fold Change (Pre- to Post-op) (Gm12511): 3.199 | Fold Change (Pre- to Post-op) (Gm12657): 3.132 | Fold Change (Pre- to Post-op) (Gm13446): 3.112 | Fold Change (Pre- to Post-op) (Gm14057): 3.048 | Fold Change (Pre- to Post-op) (Gm14207): 3.281 | Fold Change (Pre- to Post-op) (Gm14295): 5.305 | Fold Change (Pre- to Post-op) (Gm14399): 8.008 | Fold Change (Pre- to Post-op) (Gm15133): 7.741 | Fold Change (Pre- to Post-op) (Gm15401): 3.109 | Fold Change (Pre- to Post-op) (Gm15421): 3.531 | Fold Change (Pre- to Post-op) (Gm15441): 4.992 | Fold Change (Pre- to Post-op) (Gm17619): 5.884 | Fold Change (Pre- to Post-op) (Gm20559): 3.18 | Fold Change (Pre- to Post-op) (Gm20748): 3.446 | Fold Change (Pre- to Post-op) (Gm20939): 4.759 | Fold Change (Pre- to Post-op) (Gmfg): 4.953 | Fold Change (Pre- to Post-op) (Gng10): 3.124 | Fold Change (Pre- to Post-op) (Gng11): 3.679 | Fold Change (Pre- to Post-op) (Gpx1): 3.648 | Fold Change (Pre- to Post-op) (Gpx4): 6.065 | Fold Change (Pre- to Post-op) (Gramd2): 6.347 | Fold Change (Pre- to Post-op) (Gsta3): 5.905 | Fold Change (Pre- to Post-op) (Gsta4): 3.877 | Fold Change (Pre- to Post-op) (Gstm4): 3.681 | Fold Change (Pre- to Post-op) (Gstt2): 3.468 | Fold Change (Pre- to Post-op) (Gt(ROSA)26Sor): 5.17 | Fold Change (Pre- to Post-op) (Gtf2a2): 3.625 | Fold Change (Pre- to Post-op) (Gtf2h5): 3.263 | Fold Change (Pre- to Post-op) (Guca1a): 9.306 | Fold Change (Pre- to Post-op) (Guk1): 7.262 | Fold Change (Pre- to Post-op) (H2afz): 3.529 | Fold Change (Pre- to Post-op) (H3f3a): 3.302 | Fold Change (Pre- to Post-op) (Hagh): 3.337 | Fold Change (Pre- to Post-op) (Haus7): 3.012 | Fold Change (Pre- to Post-op) (Hcrtr1): 4.641 | Fold Change (Pre- to Post-op) (Hddc2): 4.255 | Fold Change (Pre- to Post-op) (Hdhd3): 3.186 | Fold Change (Pre- to Post-op) (Hebp2): 3.635 | Fold Change (Pre- to Post-op) (Higd1a): 3.567 | Fold Change (Pre- to Post-op) (Hint3): 4.975 | Fold Change (Pre- to Post-op) (Hist1h2ba): 3.294 | Fold Change (Pre- to Post-op) (Hist1h2bb): 3.163 | Fold Change (Pre- to Post-op) (Hist1h2bc): 3.588 | Fold Change (Pre- to Post-op) (Hist1h2bf): 3.002 | Fold Change (Pre- to Post-op) (Hist1h2bg): 3.16 | Fold Change (Pre- to Post-op) (Hist1h2bh): 3.19 | Fold Change (Pre- to Post-op) (Hist1h2bj): 3.203 | Fold Change (Pre- to Post-op) (Hist1h2bl): 3.137 | Fold Change (Pre- to Post-op) (Hist1h2bm): 3.186 | Fold Change (Pre- to Post-op) (Hist1h2bp): 3.172 | Fold Change (Pre- to Post-op) (Hist1h2bq): 3.205 | Fold Change (Pre- to Post-op) (Hist1h2br): 3.199 | Fold Change (Pre- to Post-op) (Hist1h4i): 3.129 | Fold Change (Pre- to Post-op) (Hist2h2aa2): 3.081 | Fold Change (Pre- to Post-op) (Hlcs): −3.008 | Fold Change (Pre- to Post-op) (Hmbs): 3.128 | Fold Change (Pre- to Post-op) (Hnmt): 3.521 | Fold Change (Pre- to Post-op) (Hoga1): 6.0542 | Fold Change (Pre- to Post-op) (Hrasls): 5.154 | Fold Change (Pre- to Post-op) (Hsd11b1): 3.929 | Fold Change (Pre- to Post-op) (Hspe1): 3.664 | Fold Change (Pre- to Post-op) (Htatip2): 3.421 | Fold Change (Pre- to Post-op) (Ict1): 3.255 | Fold Change (Pre- to Post-op) (Idi1): 4.609 | Fold Change (Pre- to Post-op) (Idnk): 3.423 | Fold Change (Pre- to Post-op) (Ifi27l2a): 3.444 | Fold Change (Pre- to Post-op) (Ifitm6): 3.343 | Fold Change (Pre- to Post-op) (Ifrd1): 5.172 | Fold Change (Pre- to Post-op) (Igj): 3.264 | Fold Change (Pre- to Post-op) (Il18): 3.224 | Fold Change (Pre- to Post-op) (Immp1l): 5.377 | Fold Change (Pre- to Post-op) (Immp2l): 3.062 and 3.061 | Fold Change (Pre- to Post-op) (Insig1): 5.379 | Fold Change (Pre- to Post-op) (Insig2): 3.408 | Fold Change (Pre- to Post-op) (Insl6): 6.105 | Fold Change (Pre- to Post-op) (Iyd): 3.776 | Fold Change (Pre- to Post-op) (Jmjd7): 3.433 | Fold Change (Pre- to Post-op) (Kbtbd3): 3.228 | Fold Change (Pre- to Post-op) (Khk): 3.451 | Fold Change (Pre- to Post-op) (Klhl9): 3.074 | Fold Change (Pre- to Post-op) (Krt14): 8.678 | Fold Change (Pre- to Post-op) (LOC100503295): 3.232
